Values are relative to the signal before dosing, not to a vehicle control; the signal also falls without drug.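 Fibroblast labels name human fibroblasts: mostly primary ones from tissues such as uterus (C12385, HUF), lung (H6013), bone (Hs27A), adrenal (HADF) and skin (WS1), plus mammary HMF and breast cancer-associated Hs343T. The cancer cells are basal-like or mesenchymal-like triple-negative breast cancer lines. The paper calls a changed response a hit when it shifts by more than 3x the replicate standard deviation. The tissue of the other fibroblasts is not given here.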
System: Hs578T
Experiment: relative JC-1 red fluorescence (viability) vs pre-drug, coculture with fibroblast (fraction); higher = more viable cancer cells
Conditions: 1 µM
Description: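 JC-1 labelled TNBC cells cocultured 1:1 (1,500 cells each) with CellTrace Violet stained primary or stromal fibroblasts in 384-well plates in FluoroBrite medium, treated with one of 42 anticancer drugs at 0.1, 1, 10 or 100 uM. JC-1 red fluorescence (mitochondrial integrity in cancer cells only) was read by plate reader every 8 h for 72 h. Values are normalised to each well's pre-drug value. The stock of one drug was tenfold lower, so its dose labels may be too high.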

CN(Cc1cnc2nc(N)nc(N)c2n1)c1ccc(C(=O)N[C@@H](CCC(=O)O)C(=O)O)cc1 [Methotrexate]
Conditions	relative JC-1 red fluorescence
8 h	0.901
16 h	0.774
24 h	0.73
32 h	0.686
40 h	0.636
48 h	0.6
56 h	0.599
64 h	0.578
72 h	0.578

relative JC-1 red fluorescence
Conditions	8 h	16 h	24 h	32 h	40 h	48 h	56 h	64 h	72 h
coculture fibroblast: C12385	0.8314	0.689	0.644	0.557	0.498	0.468	0.452	0.446	0.45
coculture fibroblast: H6013	0.9332	0.862	0.83	0.819	0.783	0.781	0.761	0.77	0.778
coculture fibroblast: H6019	0.769	0.662	0.648	0.556	0.518	0.491	0.462	0.448	0.428
coculture fibroblast: H6076	0.8936	0.7968	0.763	0.75	0.706	0.697	0.686	0.673	0.67
coculture fibroblast: H6231	0.8881	0.809	0.706	0.67	0.599	0.571	0.532	0.508	0.497
coculture fibroblast: HADF	0.932	0.8275	0.784	0.758	0.74	0.726	0.699	0.704	0.685
coculture fibroblast: HCFa	0.90992	0.844	0.806	0.762	0.711	0.699	0.669	0.65	0.606
coculture fibroblast: HCPF	0.944	0.849	0.806	0.77	0.723	0.714	0.708	0.661	0.619
coculture fibroblast: HHSteC	0.912	0.798	0.729	0.685	0.629	0.588	0.556	0.53	0.493
coculture fibroblast: HMF	0.884	0.751	0.721	0.693	0.6425	0.613	0.585	0.557	0.551
coculture fibroblast: HPFa	0.94708	0.8511	0.7923	0.748	0.724	0.695	0.652	0.638	0.608
coculture fibroblast: HUF	0.8996	0.738	0.74	0.643	0.595	0.563	0.53	0.52	0.522
coculture fibroblast: Hs27A	0.8681	0.8011	0.72	0.68	0.638	0.6343	0.607	0.617	0.586
coculture fibroblast: Hs343T	0.975	0.8644	0.823	0.797	0.722	0.691	0.659	0.632	0.622
coculture fibroblast: WS1	0.82	0.698	0.654	0.576	0.521	0.504	0.485	0.481	0.484

Source: the supplement of paper PMC6078165
